PubChem BioAssay AID1259266 | Sanger Institute – 2017
Test: 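Find knock-downs that kill LS123 cells or act with anchor drugs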 (primary screen). Cell system: LS123 human colorectal cancer cells. Reagents: siRNA pool against human genes. Conditions: anchor drugs BYL719 (1 µM), cetuximab (5 µg/ml) or trametinib (10 nM), each chosen to barely slow growth alone; DMSO vehicle as the drug-free arm. Measured: 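Replicate-averaged viability scaled to non-targeting pools, robust z-score for siRNA alone, and a synergy score per anchor drug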. Scale: robust z-score, knock-down alone: higher = more cells surviving after knock-down. Active means: 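Essential when the robust z-score of the knock-down alone is below -3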. Calls: active = essential (knock-down alone cuts viability); inactive = no change.
Here is a random part of 794 deposited reagents. 16 of them (2%) count as active. 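Calls reflect knock-down alone, not drug synergy; viability seems capped at 1 and z-scores at 0.585.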 Unmarked entries are inactive. Not all columns of the deposit are shown. Not stated in the record: the amount of reagent, the time to read-out.

| target gene | robust z-score, knock-down alone |
| --- | --- |
| MUSK | -1.93 |
| ABL1 | 0.585 |
| STK17B | 0.134 |
| PRKACG | 0.585 |
| PXK | 0.585 |
| PI4KB | 0.585 |
| TGFBR3 | 0.585 |
| WNK2 | 0.585 |
| TESK2 | 0.585 |
| NUAK2 | -1.34 |
| AK5 | -0.138 |
| STRADB | 0.585 |
| CAMK2A | 0.582 |
| CSNK2A2 | -1.97 |
| MGA | -1.2 |
| PAK3 | 0.517 |
| TP53BP1 | 0.585 |
| MAP3K15 | 0.585 |
| FBXW7 | 0.585 |
| PLK2 | 0.585 |
| KSR1 | -2.58 |
| PRKAB2 | 0.0184 |
| MPP1 | 0.585 |
| CDK11A | 0.585 |
| EFNA4 | 0.585 |
| ACVR1C | 0.585 |
| CDK4 | -0.977 |
| MAPK3 | -2.25 |
| IDH2 | 0.0637 |
| MPP3 | -4.04 (active) |
| MAPK13 | 0.585 |
| TNK2 | 0.279 |
| STK17A | 0.585 |
| MAP3K20 | 0.585 |
| DGKD | 0.585 |
| PANK4 | -2.49 |
| PCK1 | -0.464 |
| CDKL3 | 0.585 |
| PRKAR2A | -0.259 |
| IP6K3 | -1.71 |
| PRKG2 | 0.585 |
| MAP2K7 | -0.671 |
| TJP2 | 0.585 |
| IKBKG | 0.118 |
| PRKCG | 0.585 |
| TNIK | -0.0892 |
| GUCY2D | -3.31 (active) |
| MYH10 | 0.585 |
| EPHB2 | -1.29 |
| ADCK2 | -2.22 |
| ULK2 | -0.352 |
| GK2 | 0.585 |
| ADGRL2 | 0.585 |
| TAOK1 | 0.585 |
| EIF2AK3 | 0.585 |
| IRAK2 | 0.585 |
| SCYL1 | 0.585 |
| CNOT1 | -3.45 (active) |
| STK26 | 0.585 |
| CDK5R1 | -0.893 |
| CKMT1B | -1.1 |
| CLK2 | 0.585 |
| THNSL1 | 0.585 |
